{"source": "patent US12171870B2", "about": "“Contact lens packaging solutions” (ALCON INC., priority 2020, dated 2024)", "assay": "DMPC loading test: lens autoclaved in packaging solution, rinsed, extracted, DMPC determined by HPLC"}
{"compound": "CCCCCCCCCCCCCC(=O)OC[C@H](COP(=O)([O-])OCC[N+](C)(C)C)OC(=O)CCCCCCCCCCCCC", "note": "[DMPC, Dimyristoylphosphatidylcholine]", "values": [{"measurement": "DMPC loading in the contact lens", "setting": "DMPC concentration in the packaging solution 0.1 mg/ml", "result": 25, "unit": "μg/lens"}, {"measurement": "DMPC loading in the contact lens", "setting": "DMPC concentration in the packaging solution 0.5 mg/ml", "result": 55, "unit": "mg/mL"}, {"measurement": "DMPC loaded into contact lens", "setting": "during autoclave in packing saline with DMPC nanoparticles (0.1-1 mg/mL)", "result": "25-65 ug/lens"}]}
